The other results are listed elsewhere or left out.

Protein sequences, listed by entry. Tags and fused reporters are not part of them.
UniProt Q0JBA9, entry or part of it: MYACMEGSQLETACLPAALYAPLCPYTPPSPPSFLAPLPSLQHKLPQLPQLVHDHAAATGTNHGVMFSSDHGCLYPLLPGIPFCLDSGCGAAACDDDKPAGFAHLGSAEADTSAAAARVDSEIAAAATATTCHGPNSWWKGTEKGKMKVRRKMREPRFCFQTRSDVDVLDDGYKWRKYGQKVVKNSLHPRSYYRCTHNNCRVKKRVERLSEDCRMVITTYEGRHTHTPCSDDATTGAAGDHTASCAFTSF

The target of the experiment is OsWRKY34 (Oryza sativa, UniProt Q0JBA9 1-250). The experiment in a line: protein-binding microarray (RPBM); PBS, 2% BSA, 51.3 ng/ul salmon testes DNA, 50 uM zinc acetate, 200 nM TF, 25 C, 1 h; high values mean tight binding. The note with it: protein: recombinant; tags: N-terminal polyhistidine and DsRed monomer fusion (pET32a); label: CyDye5-dUTP incorporated in the synthesized complementary strand; 3' TTTTT single-stranded linker to array surface; dsDNA, one strand shown. The procedure, abridged: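 Polyhistidine-tagged DsRed fusions of transcription factors, joined at the N-terminus, were expressed in E. coli BL21-CodonPlus and isolated on Ni–NTA. They were incubated at 200 nM for 1 h at 25 °C on a custom Agilent array, double-stranded and BSA-blocked, in PBS with 2% BSA, salmon testes DNA and 50 µM zinc acetate. The binding signal is per-feature fluorescence intensity (arbitrary units) read on an Axon 4000B scanner after washing.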
With “CTGAGCTCCGCCGTCCACCGCTATCGGCTTGAAACCGCCGCGGAGTCACCTAGTGCAG”, the binding signal was 8080 fluorescence intensity (a.u.).
For the sequence “CGTGAGATTTGGCTGGGGAGTGGTGGTGGTGCGCCGCGGGCGGAGTCACCTAGTGCAG”, the binding signal is 8920 fluorescence intensity (a.u.).
Take “GCGGGATGGGGAGGCGGCGCCGCGAGGAGGAGGGGATGGGCGGAGTCACCTAGTGCAG”: the binding signal was 11900 fluorescence intensity (a.u.).
The same measure for “CATGGACTCTGCTCATCGTTACATTTGTTGCTTCTCCTTGCGGAGTCACCTAGTGCAG”: 10700 fluorescence intensity (a.u.); for “TTGGCTGCACAACCTTTTATCAGTCGATCCCCACCGCCGGCGGAGTCACCTAGTGCAG”: 8240 fluorescence intensity (a.u.).
Take “ACATTTCTCCCATTTTTAATTTTGCTTGTGGTTGGAACTTCGGAGTCACCTAGTGCAG”: the binding signal is 8200 fluorescence intensity (a.u.).
The result for “TAAATTTCCAACTTTTTCATCAGATCGTTCCAATTTTAACCGGAGTCACCTAGTGCAG” reads 8330 fluorescence intensity (a.u.).
In the case of “AGTTTCAGAACTCACCTCTTTATTAATACATTTAGTTGTTCGGAGTCACCTAGTGCAG”, the binding signal was 8850 fluorescence intensity (a.u.).
The result for “AAGTGATTTCACGGTTTGAGAAGTTATTGGGGAGGTATATCGGAGTCACCTAGTGCAG” reads 9350 fluorescence intensity (a.u.); that for “CTCAACACTTGCACGAGTTCTTCGTTGCTTGCCGCTCTATCGGAGTCACCTAGTGCAG”, 9120 fluorescence intensity (a.u.).
The same measure for “ATGGGTGTTTGTTTTTCGCTAATGTGGCATCCTAGTCAGACGGAGTCACCTAGTGCAG”: 9480 fluorescence intensity (a.u.).
The result for “ATTCCATTACCTCTGCTATATATACACACAAACCGCTGACCGGAGTCACCTAGTGCAG” reads 10300 fluorescence intensity (a.u.); that for “CGTCGTGTGCGTTCTGTTAGTTTGGTTGAGTCGTGATCACCGGAGTCACCTAGTGCAG”, 12200 fluorescence intensity (a.u.); that for “CGGGCTGACACCCTGTGCCTTTTTCCTTTTGTTTCTTTTGCGGAGTCACCTAGTGCAG”, 8240 fluorescence intensity (a.u.).
As to “TCTGCGTCGTGTACTCGTGTGCTTTGGTGTTTTAATTTCTCGGAGTCACCTAGTGCAG”, the binding signal is 12100 fluorescence intensity (a.u.).
Regarding “GGTGGTGGTGGTGGAGAGAGAGAGGAGTGCGTCGCCGACGCGGAGTCACCTAGTGCAG”, the binding signal is 11700 fluorescence intensity (a.u.).
The same measure for “TGCCGGTGTGGCTTGCTGAGTACTGTGGTTGTACTCATTCCGGAGTCACCTAGTGCAG”: 8060 fluorescence intensity (a.u.); for “TTTTGCTTATCATATCATATATTTTCTAAGCTTGATTTTTCGGAGTCACCTAGTGCAG”: 8050 fluorescence intensity (a.u.).
The result for “ACTACACCTACGGCTCATATGGACCCGGTCCACACAAATTCGGAGTCACCTAGTGCAG” reads 10200 fluorescence intensity (a.u.); that for “ATCCCGCCGCCTCTCCTCCTTATCCCCTCCATCTTCTCCGCGGAGTCACCTAGTGCAG”, 9520 fluorescence intensity (a.u.); that for “ATATATCATACCTTGGTACATTTGTCAGCCTCACGGCAGTCGGAGTCACCTAGTGCAG”, 8190 fluorescence intensity (a.u.).
The same measure for “GCATTATTCTTGTTAGACAGTCGTTGACCCTAAATGAACTCGGAGTCACCTAGTGCAG”: 10600 fluorescence intensity (a.u.); for “CGTATGGCCAAAATTGATTATAGCTTTTTTTTATTTAGTGCGGAGTCACCTAGTGCAG”: 8030 fluorescence intensity (a.u.); for “CCCACCGCCACCACCGCCGCTTCCGACCACCCCGTCCTCACGGAGTCACCTAGTGCAG”: 10700 fluorescence intensity (a.u.).
For “CCCCAATCCTCGCATGCCAACTCACCTGTGTTGCTTTTGCCGGAGTCACCTAGTGCAG”, the binding signal was 8830 fluorescence intensity (a.u.).
Take “TTCTGCAATGGTATCTCTCGTCTGAGAGCGGTTGGTTCTTCGGAGTCACCTAGTGCAG”: the binding signal is 11200 fluorescence intensity (a.u.).
The result for “GAGTATGATAGTTGTGTGGTTTTTACCCCGTTTTCGCTAACGGAGTCACCTAGTGCAG” reads 10800 fluorescence intensity (a.u.); that for “AGAAGACACACTTTAGTACTAACACTTCAACATTTTTCACCGGAGTCACCTAGTGCAG”, 8150 fluorescence intensity (a.u.); that for “ATAAAATAGTTGACTGGCTATCTTCTACTCCACTTGGTATCGGAGTCACCTAGTGCAG”, 8860 fluorescence intensity (a.u.).
The result for “GTTTGACACTTTTAGTACGTGTTTGACCATTTGTTTTATTCGGAGTCACCTAGTGCAG” reads 10200 fluorescence intensity (a.u.); that for “CAATACCCTTCATCCATCTTTTGGCTATTTGGCAGTTTCTCGGAGTCACCTAGTGCAG”, 8660 fluorescence intensity (a.u.); that for “CATTTTTTCCTTTTTTTCAGGGCGTGACATGCCGGCACTCCGGAGTCACCTAGTGCAG”, 9790 fluorescence intensity (a.u.).
Take “AACTACAACTATCTTGTTTTTATTTACACGCTTTTCAAACCGGAGTCACCTAGTGCAG”: the binding signal was 8620 fluorescence intensity (a.u.).
As to “CCTTTGTGCTGTTTTCCATGTGTGTACCATTTGTATTTCTCGGAGTCACCTAGTGCAG”, the binding signal was 12600 fluorescence intensity (a.u.).
The result for “GTACTCCATTTGTCTCTAAATTTTTGGTTGGATGTTACACCGGAGTCACCTAGTGCAG” reads 9860 fluorescence intensity (a.u.).
The result for “TGTGCTAAAAAGTCAACGGTGTCAAACATTTAGAAACGGACGGAGTCACCTAGTGCAG” reads 9200 fluorescence intensity (a.u.).
Take “AGGCGAGCGAGACGGCGGCGGGCGGGCGGGGCGGGCGACGCGGAGTCACCTAGTGCAG”: the binding signal is 14800 fluorescence intensity (a.u.).
The result for “AGGTGAGGGGATTTGATATTATTTCTTGGATTTTAGGGTGCGGAGTCACCTAGTGCAG” reads 9440 fluorescence intensity (a.u.); that for “CGAGCAACACGGCGAAGTTTCTGTTCCTCATTTCCGCTTCCGGAGTCACCTAGTGCAG”, 8300 fluorescence intensity (a.u.).
The result for “ACTCAGCATCGGGTCCCGCATCACTTTTGTTTGAATGGAACGGAGTCACCTAGTGCAG” reads 9180 fluorescence intensity (a.u.); that for “GGTTGGTTTGTTGTGTGGTAGGTAGGTGAGACGCATGTGCCGGAGTCACCTAGTGCAG”, 10600 fluorescence intensity (a.u.); that for “ATGGCACAAGTCTCGTTCACATTTGTTTTCATATATTTCCCGGAGTCACCTAGTGCAG”, 10800 fluorescence intensity (a.u.).
The result for “CCCTCGCGCACCGATCTCCGCTGTAGTTCTCCGCGCCGCCCGGAGTCACCTAGTGCAG” reads 8540 fluorescence intensity (a.u.); that for “CCTCTTCTCCTTCGGTGTGTTCGTCGATGTGCTTTGCTGACGGAGTCACCTAGTGCAG”, 8580 fluorescence intensity (a.u.).
As for “CTAGTGCTGCTTCATGTTATTATATGCTGAAATTGTGGGCCGGAGTCACCTAGTGCAG”, the binding signal is 8640 fluorescence intensity (a.u.).
“ACATCACACAACACAGCCTCATCTCTCATGCTGTCATGCTCGGAGTCACCTAGTGCAG”: the binding signal is 9040 fluorescence intensity (a.u.).
The result for “CTTCTCCTGCTTGTTTCCTTGTCTTGTGGTGCATCACATCCGGAGTCACCTAGTGCAG” reads 8810 fluorescence intensity (a.u.).
The result for “CTATTGATACTTATTTCTGTTAGCATCTTTTGTGCATCGTCGGAGTCACCTAGTGCAG” reads 8330 fluorescence intensity (a.u.); that for “TCTTGTTTCGAAACCTACGTATTAATCTGACTCTGTTTTTCGGAGTCACCTAGTGCAG”, 13500 fluorescence intensity (a.u.); that for “GGATCGTTATTTTGCTTGTTAGTGTGTCGTCCACTGGCTTCGGAGTCACCTAGTGCAG”, 11100 fluorescence intensity (a.u.).
The same measure for “GCCCGTTTCTGATGATCATCGCCAGTTCACCACCGGTGAACGGAGTCACCTAGTGCAG”: 8280 fluorescence intensity (a.u.); for “GCCGACTCCTCCGCCCACTCGGTTTCCACGCGTCGTTTATCGGAGTCACCTAGTGCAG”: 16200 fluorescence intensity (a.u.); for “TTTCGACTAACGTTTGACCATTCGTTTTATTCAAAATTTTCGGAGTCACCTAGTGCAG”: 8880 fluorescence intensity (a.u.).
Turning to “GTCTTTGGTTGAGGTAGTGCACTATGATTAAATTTACAATCGGAGTCACCTAGTGCAG”, the binding signal was 8540 fluorescence intensity (a.u.).

These data come from paper PMC7819943, “Rice protein-binding microarrays: a tool to detect cis-acting elements near promoter regions in rice”.
